Experimental data: PubChem BioAssay AID504808 (Drosophila RNAi Screening Center, 2011)
The deposit covers about 21,000 reagents; shown is an unselected part of those with a known target gene and a result. In the full data, 18 (0.084%) were called active. 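Raw counts without plate normalisation, one of two replicates; the ratio scores behind the calls were not deposited.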 Not stated in the record: the amount of reagent, the time to read-out.

- Screen: 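Chromatin factors that keep E2F targets switched off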 (primary screen)
- System: Drosophila S2 cells
- Reagent: long dsRNA against Drosophila genes
- Measurement: 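Dual luciferase plate measurements; E2F-specific signal taken as firefly over Renilla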
- Scale: E2F firefly: higher = more E2F reporter activity; Renilla normaliser: higher = more normaliser reporter signal
- Hit rule: 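a knock-down counted as active when the firefly/Renilla E2F signal rose above 50%, a threshold chosen arbitrarily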

How did the screen score CG13392 [DRSC02262]?
E2F firefly, rep 1: 1.47e5; Renilla normaliser, rep 1: 168; outcome: inactive

How did the screen score RpL30 [DRSC02087]?
E2F firefly, rep 1: 85318; Renilla normaliser, rep 1: 4551; outcome: inactive

With Argk2 [DRSC10483], what was measured?
E2F firefly, rep 1: 92100; Renilla normaliser, rep 1: 3812; outcome: inactive

How did the screen score Osi8 [DRSC12277]?
E2F firefly, rep 1: 1.35e5; Renilla normaliser, rep 1: 6742; outcome: inactive

For Fatp (retired record) [DRSC03054], what was measured?
E2F firefly, rep 1: 79588; Renilla normaliser, rep 1: 3416; outcome: inactive

Which result is listed for ND-42 [DRSC16754]?
E2F firefly, rep 1: 69940; Renilla normaliser, rep 1: 3285; outcome: inactive

For mRpS26 [DRSC10823], what does the deposit list?
E2F firefly, rep 1: 1.60e5; Renilla normaliser, rep 1: 6159; outcome: inactive

What did the screen give for CG12307 [DRSC02159]?
E2F firefly, rep 1: 1.49e5; Renilla normaliser, rep 1: 5593; outcome: inactive

What is on record for eIF3a [DRSC12339]?
E2F firefly, rep 1: 74465; Renilla normaliser, rep 1: 6723; outcome: inactive

How did the screen score Drak [DRSC19778]?
E2F firefly, rep 1: 1.26e5; Renilla normaliser, rep 1: 6200; outcome: inactive

With Burs [DRSC14595], what was measured?
E2F firefly, rep 1: 1.26e5; Renilla normaliser, rep 1: 8602; outcome: inactive

For olf413 [DRSC11543], what does the deposit list?
E2F firefly, rep 1: 94655; Renilla normaliser, rep 1: 4449; outcome: inactive

How did the screen score olf413 [DRSC11679]?
E2F firefly, rep 1: 1.35e5; Renilla normaliser, rep 1: 6549; outcome: inactive

How did the screen score olf413 [DRSC11721]?
E2F firefly, rep 1: 1.28e5; Renilla normaliser, rep 1: 7340; outcome: inactive

What did the screen give for olf413 [DRSC11833]?
E2F firefly, rep 1: 1.35e5; Renilla normaliser, rep 1: 6599; outcome: inactive

With CG34001 [DRSC09042], how do the results read?
E2F firefly, rep 1: 1.37e5; Renilla normaliser, rep 1: 5077; outcome: inactive

4 of these entries in another layout:
Drak [DRSC19778]
- E2F firefly, rep 1: 1.26e5
- Renilla normaliser, rep 1: 6200
- outcome: inactive

Burs [DRSC14595]
- E2F firefly, rep 1: 1.26e5
- Renilla normaliser, rep 1: 8602
- outcome: inactive

olf413 [DRSC11543]
- E2F firefly, rep 1: 94655
- Renilla normaliser, rep 1: 4449
- outcome: inactive

olf413 [DRSC11679]
- E2F firefly, rep 1: 1.35e5
- Renilla normaliser, rep 1: 6549
- outcome: inactive

Further results follow.
Which result is listed for CCDC151 [DRSC10131]?
E2F firefly, rep 1: 1.35e5; Renilla normaliser, rep 1: 6967; outcome: inactive

For CG7755 [DRSC07040], what was measured?
E2F firefly, rep 1: 1.48e5; Renilla normaliser, rep 1: 5249; outcome: inactive

How did the screen score CG7320 [DRSC10810]?
E2F firefly, rep 1: 1.55e5; Renilla normaliser, rep 1: 8167; outcome: inactive

What did the screen give for CG9837 [DRSC16573]?
E2F firefly, rep 1: 1.40e5; Renilla normaliser, rep 1: 7084; outcome: inactive

What did the screen give for ths [DRSC06153]?
E2F firefly, rep 1: 78478; Renilla normaliser, rep 1: 3714; outcome: inactive

For Plzf [DRSC02994], what does the deposit list?
E2F firefly, rep 1: 70859; Renilla normaliser, rep 1: 3007; outcome: inactive

How did the screen score SP1173 [DRSC11277]?
E2F firefly, rep 1: 73108; Renilla normaliser, rep 1: 3498; outcome: inactive

With CG2938 [DRSC18243], how do the results read?
E2F firefly, rep 1: 1719; Renilla normaliser, rep 1: 832; outcome: inactive

For Prp4k [DRSC08144], what was measured?
E2F firefly, rep 1: 69632; Renilla normaliser, rep 1: 3546; outcome: inactive

What is on record for RnrS [DRSC07533]?
E2F firefly, rep 1: 1635; Renilla normaliser, rep 1: 172; outcome: inactive

What did the screen give for Tnpo [DRSC11309]?
E2F firefly, rep 1: 66410; Renilla normaliser, rep 1: 4013; outcome: inactive

What is on record for Rrp45 [DRSC20198]?
E2F firefly, rep 1: 2.37e5; Renilla normaliser, rep 1: 7100; outcome: inactive
